Library screening results

The values are deposited in ChEMBL (CHEMBL3988442, “University of Dundee, Small-Polar-MMV Screening Library” (2021)).

Each number is a percent effect as filed.
The record does not define 0% and 100%; most values in the screen are far below 50% and negative numbers occur (in some assays of this library far below -100).
The compounds are a random part of those screened.
Two or more numbers in one place are separate tests of the same structure; such repeats can differ widely.

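Viability assay of Plasmodium falciparum sporozoites; the read-out is not stated. The concentration is filed as 10 mM, unlikely as a test dose, so the dose is not known. Direction is inferred from retests: higher values go with lower viability. Strong results were mostly tested again. Of about 34,000 compounds tested this way, about 280 (0.84%) reached 50% or more in at least one test.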

* O=C(c1cnc2c(cnn2C2CCCC2)c1)N1CCCSCC1 : 11.1%
* O=C(O)C(F)(F)F.O=C(O)C(F)(F)F.O=C(c1cccnc1)N1CCn2nnc(COc3ccccn3)c2C1 : 1.07%
* COc1ccc(OCCC(=O)N2CCCC2Cn2cccn2)cc1 (configuration not stated) : 5.68%
* CCCc1ncc(CNC2(c3ccc(Cl)cc3)CCC2)cn1 : 9.707%
* [H][C@]12CCN[C@@]1([H])CN(C(=O)NCC(C)C)C2 : 4.106%
* COc1ccc(NC(=O)Cn2nc(C)ccc2=O)cc1OC : -7.456%
* O=C(NCCc1ccc(F)cc1)NCC(O)c1cccc(F)c1 (configuration not stated) : 11.96%
* COc1ccc2c(c1)C(=O)NC1(CC2)CCN(Cc2ccncc2)C1 (configuration not stated) : 11.06%
* Cc1ccc(CN(Cc2ccccn2)C2CC(C)(C)NC(C)(C)C2)s1.O=C(O)CC(O)(CC(=O)O)C(=O)O : -16.71%
* CCNC(=O)NC[C@H]1COCc2nc3cc(C)ccc3n21 : -7.313% and -0.8264%
* COc1ccc(CCNC(=O)NCc2cccc(C(N)=O)c2)cc1OC : -4.501%
* CCn1cnnc1C1CCN(C(=O)c2ccc(C(=O)OC)s2)CC1 : -7.85%
* Cc1ccc(-c2noc(C(C)NS(C)(=O)=O)n2)cc1 (configuration not stated) : 9.937%
* COc1ccccc1C(O)CNCc1c(C(C)C)nn(C)c1N(C)C (configuration not stated) : -3.761%
* O=S(=O)(NCCc1c[nH]c2cc(F)ccc12)C1CCOC1 (configuration not stated) : 8.12%
* COCc1nc(C(=O)N2CCCC2c2ccc(OC)cc2)cs1 (configuration not stated) : -26.79% and 0% and -18.12%
* CCOCC1CN(Cc2cnn(C)c2)Cc2nn(C)cc21.O=C(O)C(F)(F)F (configuration not stated) : -8.389%
* Cl.c1cnc2c(c1)cc([C@@H]1CCCO1)n2CCN1CCCCC1 : -6.281%
* c1cnc(-c2cnc(N3CCCCC3)nc2C2CCCO2)cn1 (configuration not stated) : -2.538%
* COc1ccc2c(=O)n(CC3CCNC3)ccc2c1OC (configuration not stated) : -0.355%
* Cc1noc(C2(C)CCCN(C(=O)c3cnn(C)c3)C2)n1 (configuration not stated) : 0.6554%
* Cl.Cn1cc([C@@H]2CN(S(=O)(=O)c3cccnc3)C[C@H]2N)c2ccncc21 : 5.86%
* CCS(=O)(=O)N1CCc2c(COC)cncc2C1 : 4.133%
* CCn1c(-c2ccccc2)nn(CC(=O)NCCc2ccc(C)o2)c1=O : -15.47%
* Cc1ccc(C2CN(Cc3cccc4[nH]ccc34)CCO2)nc1 (configuration not stated) : 9.691%
* CS(=O)(=O)c1cccc(C(N)c2ccc(F)c(F)c2)c1.Cl (configuration not stated) : -15.44%
* Cc1nn(C)c(C)c1C1CCCN1C(=O)c1ccc(CN(C)C)cc1 (configuration not stated) : 1.086%
* c1cc(CN2CCCC2c2noc(C3CC3)n2)on1 (configuration not stated) : 4.75%
* CCc1nccn1C1CCCN(C(=O)Cc2n[nH]c3ccccc23)C1 (configuration not stated) : -5.012%
* Cc1ccccc1CNC(=O)C1CCN(Cc2nccn2C)CC1 : 8.091%
* COc1ccccc1N1CCN(C(=O)CCn2ccc(C)n2)CC1 : 5.282%
* COc1ccc(-c2nonc2N)cc1 : -13.88%
* O=C(N[C@@H]1CN(Cc2ccc(F)c(F)c2)C[C@H]1O)c1cscn1 : 1.172%
* O=C(NC1CC1)c1ccnc(-c2cc(NCCO)nc3[nH]ccc23)c1 : -22.65%
* Cl.Fc1ccccc1OCCc1cc(C2CNCCO2)n[nH]1 (configuration not stated) : -0.03121%
* Cc1ccccc1CNC(=O)CN1CCCC(Cc2nccn2C)C1 (configuration not stated) : 14.82%
* CN1CCCC(Cc2cncc(C(=O)N3CCOCC3)c2)C1 (configuration not stated) : 3.754%
* Cc1cc(F)ccc1S(=O)(=O)NCc1cccc(C(=O)N2CCCC2)c1 : -13.87%
* Cc1nc(CC(=O)N2CCc3nnc(N(C)C)cc3C2)cs1 : 7.001%
* Cc1cn2c(n1)C(CNCC1=Cc3ccccc3OC1)CCC2 (configuration not stated) : 102.3% and 118.3% and 103.2%
* O=C(c1cccc2c1OCCO2)N1CCCCC1Cn1cccn1 (configuration not stated) : -2.676%
* Cc1nc2cc(C3CCN(Cc4cccc(F)c4F)C3)nn2c(O)c1C.O=C(O)CC(O)(CC(=O)O)C(=O)O (configuration not stated) : -12.68%
* O=C(O)C(F)(F)F.[H][C@]12CC[C@@]3(N=C(C)N(CC(C)C)C3=O)[C@@]1([H])CN(CC1CC1)C2 : 13.47%
* COc1ccccc1C(=O)N1CCNCC1C(N)=O.Cl (configuration not stated) : -2.99% and 0.7975% and -6.376%
* CC(C)C(=O)N1CCC(c2c(C(N)=O)sc3ccccc23)C1 (configuration not stated) : 3.893%
* O=C(Cc1ccc2c(c1)OCCO2)NC1CC1 : -0.31% and 15.48% and -0.9409%
* COc1ccc(C2Nc3cc(Cl)ccc3C3=NCCN32)cc1CO (configuration not stated) : -3.683%
* CC(C)c1cc(C(=O)NCCc2nc(-c3cccnc3)n[nH]2)[nH]n1 : 1.476%
* CC1CC2(CCN(C(=O)c3c[nH]cn3)CC2)c2ccccc21 (configuration not stated) : 2.825%
* [H][C@]12CCN(S(=O)(=O)c3ccc(F)cc3)[C@@]1([H])CC[C@@H](COC)O2 : -0.783%
* Cc1cnc(-c2nc(O)c3c(n2)CN(C(=O)C2CC2)CC3)cn1 : 0.7493%
* CCN1CCC2(CN(C(=O)N(C)C)CC23CCN(CC2CC2)CC3)C1=O.O=C(O)C(F)(F)F (configuration not stated) : 13%
* Cn1cc(CN2CCc3nc(-c4ccccn4)nc(O)c3C2)cn1 : 4.037%
* Cc1cc(N2CCCC(c3n[nH]c4ncccc34)C2)ncn1 (configuration not stated) : 3.013%
* COCCN(Cc1ccncc1)C(=O)CCSCc1ccc(F)cc1 : 7.815%
* CN(CC(=O)NCc1ccccn1)C1CCCN(c2cccnn2)C1 (configuration not stated) : -5.905%

For reference, 4 entries once more:

Compound	effect
CCS(=O)(=O)N1CCc2c(COC)cncc2C1	4.133%
CCCc1ncc(CNC2(c3ccc(Cl)cc3)CCC2)cn1	9.707%
Cc1nc(CC(=O)N2CCc3nnc(N(C)C)cc3C2)cs1	7.001%
Cc1ccc(CN(Cc2ccccn2)C2CC(C)(C)NC(C)(C)C2)s1.O=C(O)CC(O)(CC(=O)O)C(=O)O	-16.71%